According to doi:10.1101/2020.05.24.113795:
Results are given in words; binding and its absence hold for the method and conditions named. Binding seen in cells or lysates may run through a third protein. Some results given as binding are weak or reduced against the parent protein; the word gives no strength.

The chains behind the UniProt entries cited, without tags or fusion partners. Where a name states a change or a piece, a line headed by the entry shows the natural chain unless it says otherwise.
UniProt Q63HN8: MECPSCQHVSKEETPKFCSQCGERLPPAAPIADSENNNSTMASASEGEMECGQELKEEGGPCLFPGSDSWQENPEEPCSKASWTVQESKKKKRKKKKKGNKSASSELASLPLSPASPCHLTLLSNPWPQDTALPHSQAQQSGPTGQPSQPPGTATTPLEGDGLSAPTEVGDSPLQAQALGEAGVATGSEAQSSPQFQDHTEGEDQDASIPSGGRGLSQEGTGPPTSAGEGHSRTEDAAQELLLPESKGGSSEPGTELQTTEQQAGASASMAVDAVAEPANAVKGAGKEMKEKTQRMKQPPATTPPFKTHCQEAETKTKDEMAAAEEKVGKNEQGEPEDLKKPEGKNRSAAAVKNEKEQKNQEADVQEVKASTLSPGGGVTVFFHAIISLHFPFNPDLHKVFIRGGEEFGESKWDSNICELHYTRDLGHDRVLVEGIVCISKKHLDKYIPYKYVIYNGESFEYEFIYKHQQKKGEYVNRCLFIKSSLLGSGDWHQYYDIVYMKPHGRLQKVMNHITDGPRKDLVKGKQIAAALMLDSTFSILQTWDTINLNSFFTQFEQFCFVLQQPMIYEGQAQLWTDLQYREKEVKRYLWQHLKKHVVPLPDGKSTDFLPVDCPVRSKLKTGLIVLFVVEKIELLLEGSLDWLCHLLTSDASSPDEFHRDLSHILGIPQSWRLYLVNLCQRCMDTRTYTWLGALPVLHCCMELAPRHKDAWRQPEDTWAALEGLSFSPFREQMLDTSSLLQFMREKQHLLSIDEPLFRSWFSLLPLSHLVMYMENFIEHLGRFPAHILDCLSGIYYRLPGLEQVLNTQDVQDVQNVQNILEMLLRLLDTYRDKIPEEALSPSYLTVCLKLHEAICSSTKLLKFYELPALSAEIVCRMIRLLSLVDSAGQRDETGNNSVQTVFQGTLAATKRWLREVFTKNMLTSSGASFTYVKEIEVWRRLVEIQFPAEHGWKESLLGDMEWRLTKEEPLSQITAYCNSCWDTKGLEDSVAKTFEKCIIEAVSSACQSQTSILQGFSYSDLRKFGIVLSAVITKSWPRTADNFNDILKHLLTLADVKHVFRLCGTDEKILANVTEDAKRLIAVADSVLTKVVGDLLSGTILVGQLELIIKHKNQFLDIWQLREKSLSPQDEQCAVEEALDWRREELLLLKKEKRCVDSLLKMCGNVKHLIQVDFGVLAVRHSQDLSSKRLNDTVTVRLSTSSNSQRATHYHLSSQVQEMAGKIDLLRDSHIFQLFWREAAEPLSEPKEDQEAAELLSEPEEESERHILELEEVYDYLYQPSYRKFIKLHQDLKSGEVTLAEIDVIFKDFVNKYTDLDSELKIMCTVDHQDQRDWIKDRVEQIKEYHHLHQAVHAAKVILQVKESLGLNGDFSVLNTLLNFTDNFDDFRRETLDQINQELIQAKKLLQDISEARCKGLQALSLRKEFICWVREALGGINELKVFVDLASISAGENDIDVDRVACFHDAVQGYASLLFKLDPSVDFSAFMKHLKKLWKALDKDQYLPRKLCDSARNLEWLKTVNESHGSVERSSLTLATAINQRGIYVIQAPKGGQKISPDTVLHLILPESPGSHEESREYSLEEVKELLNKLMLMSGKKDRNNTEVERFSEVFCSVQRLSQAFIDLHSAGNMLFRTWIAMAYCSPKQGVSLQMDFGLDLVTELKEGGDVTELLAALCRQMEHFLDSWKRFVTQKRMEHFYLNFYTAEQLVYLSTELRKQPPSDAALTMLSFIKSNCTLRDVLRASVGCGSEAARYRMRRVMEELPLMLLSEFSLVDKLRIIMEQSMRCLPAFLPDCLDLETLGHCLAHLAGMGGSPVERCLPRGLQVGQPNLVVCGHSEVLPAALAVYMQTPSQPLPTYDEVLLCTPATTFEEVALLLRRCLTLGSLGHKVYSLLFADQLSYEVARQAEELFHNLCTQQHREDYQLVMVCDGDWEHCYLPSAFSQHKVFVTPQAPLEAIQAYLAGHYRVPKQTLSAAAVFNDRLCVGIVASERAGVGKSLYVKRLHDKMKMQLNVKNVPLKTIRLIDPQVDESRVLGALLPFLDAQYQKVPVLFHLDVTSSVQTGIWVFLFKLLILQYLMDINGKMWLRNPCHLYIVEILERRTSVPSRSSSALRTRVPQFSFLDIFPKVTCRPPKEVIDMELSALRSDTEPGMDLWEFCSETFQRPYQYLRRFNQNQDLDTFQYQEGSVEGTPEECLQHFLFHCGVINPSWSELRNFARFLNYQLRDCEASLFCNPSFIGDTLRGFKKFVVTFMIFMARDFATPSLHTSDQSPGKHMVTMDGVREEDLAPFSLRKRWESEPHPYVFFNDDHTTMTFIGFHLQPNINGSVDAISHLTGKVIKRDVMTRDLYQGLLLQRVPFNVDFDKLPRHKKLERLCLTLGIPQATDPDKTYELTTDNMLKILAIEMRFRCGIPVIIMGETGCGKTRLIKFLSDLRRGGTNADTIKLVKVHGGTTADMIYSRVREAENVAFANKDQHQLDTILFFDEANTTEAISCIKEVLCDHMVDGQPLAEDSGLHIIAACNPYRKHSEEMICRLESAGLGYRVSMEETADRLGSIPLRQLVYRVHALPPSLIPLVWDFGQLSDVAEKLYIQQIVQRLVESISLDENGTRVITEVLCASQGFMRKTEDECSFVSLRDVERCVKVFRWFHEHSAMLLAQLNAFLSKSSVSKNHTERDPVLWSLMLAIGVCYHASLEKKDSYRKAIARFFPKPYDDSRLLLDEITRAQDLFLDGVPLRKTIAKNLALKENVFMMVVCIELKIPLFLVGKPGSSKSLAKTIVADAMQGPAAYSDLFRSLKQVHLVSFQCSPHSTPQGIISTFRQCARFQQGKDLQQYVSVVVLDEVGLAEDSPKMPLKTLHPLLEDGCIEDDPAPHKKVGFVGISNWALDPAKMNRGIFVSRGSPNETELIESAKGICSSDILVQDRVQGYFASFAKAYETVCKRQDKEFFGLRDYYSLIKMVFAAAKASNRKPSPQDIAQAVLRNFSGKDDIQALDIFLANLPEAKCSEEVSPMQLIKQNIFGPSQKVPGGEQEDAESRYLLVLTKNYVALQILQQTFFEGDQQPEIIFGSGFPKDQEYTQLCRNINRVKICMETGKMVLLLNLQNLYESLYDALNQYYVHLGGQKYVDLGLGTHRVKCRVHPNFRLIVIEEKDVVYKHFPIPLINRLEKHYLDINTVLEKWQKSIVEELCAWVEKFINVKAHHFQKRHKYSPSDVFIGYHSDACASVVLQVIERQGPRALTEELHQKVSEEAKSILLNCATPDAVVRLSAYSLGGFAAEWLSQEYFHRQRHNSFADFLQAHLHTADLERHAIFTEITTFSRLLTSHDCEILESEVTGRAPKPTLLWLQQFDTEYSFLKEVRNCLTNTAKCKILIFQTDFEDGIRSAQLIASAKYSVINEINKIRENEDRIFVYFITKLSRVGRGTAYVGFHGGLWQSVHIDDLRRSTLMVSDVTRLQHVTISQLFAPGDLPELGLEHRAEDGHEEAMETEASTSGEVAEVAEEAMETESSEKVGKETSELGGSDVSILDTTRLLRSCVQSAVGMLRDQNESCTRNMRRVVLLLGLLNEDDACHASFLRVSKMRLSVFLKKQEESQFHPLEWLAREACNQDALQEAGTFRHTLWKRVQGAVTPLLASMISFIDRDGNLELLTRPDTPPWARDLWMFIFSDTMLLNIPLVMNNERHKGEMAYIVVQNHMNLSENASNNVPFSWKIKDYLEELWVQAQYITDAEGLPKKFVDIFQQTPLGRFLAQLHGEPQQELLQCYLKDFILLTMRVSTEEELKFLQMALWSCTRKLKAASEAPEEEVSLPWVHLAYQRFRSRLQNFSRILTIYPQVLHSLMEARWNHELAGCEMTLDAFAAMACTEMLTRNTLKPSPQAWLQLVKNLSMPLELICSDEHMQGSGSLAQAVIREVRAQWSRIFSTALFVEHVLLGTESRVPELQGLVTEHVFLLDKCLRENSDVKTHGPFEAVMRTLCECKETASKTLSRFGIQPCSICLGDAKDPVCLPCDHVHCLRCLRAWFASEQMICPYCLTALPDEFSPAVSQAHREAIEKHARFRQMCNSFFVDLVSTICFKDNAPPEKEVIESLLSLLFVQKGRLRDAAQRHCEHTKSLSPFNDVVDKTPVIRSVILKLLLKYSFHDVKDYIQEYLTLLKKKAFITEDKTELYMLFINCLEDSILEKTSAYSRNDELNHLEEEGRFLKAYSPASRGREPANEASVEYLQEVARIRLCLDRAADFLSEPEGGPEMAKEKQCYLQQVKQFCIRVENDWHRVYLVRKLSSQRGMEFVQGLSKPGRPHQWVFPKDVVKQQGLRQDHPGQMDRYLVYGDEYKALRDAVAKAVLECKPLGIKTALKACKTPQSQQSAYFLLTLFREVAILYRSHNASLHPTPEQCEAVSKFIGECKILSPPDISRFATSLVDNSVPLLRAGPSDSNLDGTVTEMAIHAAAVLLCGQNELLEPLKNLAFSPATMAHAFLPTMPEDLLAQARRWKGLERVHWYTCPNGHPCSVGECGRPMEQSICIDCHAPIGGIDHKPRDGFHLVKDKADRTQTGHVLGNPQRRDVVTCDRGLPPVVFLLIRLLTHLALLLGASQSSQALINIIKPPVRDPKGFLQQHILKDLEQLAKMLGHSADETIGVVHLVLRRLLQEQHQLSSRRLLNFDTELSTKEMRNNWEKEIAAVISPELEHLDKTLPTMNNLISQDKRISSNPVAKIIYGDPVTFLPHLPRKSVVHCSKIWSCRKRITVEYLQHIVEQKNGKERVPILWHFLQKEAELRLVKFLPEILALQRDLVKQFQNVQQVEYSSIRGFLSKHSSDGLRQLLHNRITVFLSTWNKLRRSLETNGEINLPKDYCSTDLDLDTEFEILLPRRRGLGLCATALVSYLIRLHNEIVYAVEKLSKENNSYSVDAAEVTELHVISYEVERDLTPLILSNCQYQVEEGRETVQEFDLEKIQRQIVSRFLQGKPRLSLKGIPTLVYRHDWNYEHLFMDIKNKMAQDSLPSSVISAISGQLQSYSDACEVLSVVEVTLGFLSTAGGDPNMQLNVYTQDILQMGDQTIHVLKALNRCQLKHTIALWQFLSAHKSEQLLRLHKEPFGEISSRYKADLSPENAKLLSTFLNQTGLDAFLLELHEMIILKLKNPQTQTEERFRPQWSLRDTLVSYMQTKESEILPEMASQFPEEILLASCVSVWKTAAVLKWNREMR

Tests used:
Assay in all cases: co-IP
[1] = biological target: 3x-Flag-tagged RNF213 I3999A (RING E3-defective mutant) (human) (UniProt Q63HN8)
[2] = biological target: 3x-Flag-tagged RNF213 E2488Q (AAA+ ATPase-inactive mutant) (human) (UniProt Q63HN8)
[3] = biological target: 3x-Flag-tagged RNF213 R4810K (most prevalent MMD variant) (human) (UniProt Q63HN8)

binding [1]: binds | binding [2]: binds | binding [3]: binds
Substance: EGFP-tagged WT RNF213 (from UniProt Q63HN8 1-5207)
